Two molecules from PMC12241534 can be followed below.

Experiment [1] has as its target T1, Myc-TAK1 (transforming growth factor beta-activated kinase 1) (human) (UniProt O43318).
T1 sequence: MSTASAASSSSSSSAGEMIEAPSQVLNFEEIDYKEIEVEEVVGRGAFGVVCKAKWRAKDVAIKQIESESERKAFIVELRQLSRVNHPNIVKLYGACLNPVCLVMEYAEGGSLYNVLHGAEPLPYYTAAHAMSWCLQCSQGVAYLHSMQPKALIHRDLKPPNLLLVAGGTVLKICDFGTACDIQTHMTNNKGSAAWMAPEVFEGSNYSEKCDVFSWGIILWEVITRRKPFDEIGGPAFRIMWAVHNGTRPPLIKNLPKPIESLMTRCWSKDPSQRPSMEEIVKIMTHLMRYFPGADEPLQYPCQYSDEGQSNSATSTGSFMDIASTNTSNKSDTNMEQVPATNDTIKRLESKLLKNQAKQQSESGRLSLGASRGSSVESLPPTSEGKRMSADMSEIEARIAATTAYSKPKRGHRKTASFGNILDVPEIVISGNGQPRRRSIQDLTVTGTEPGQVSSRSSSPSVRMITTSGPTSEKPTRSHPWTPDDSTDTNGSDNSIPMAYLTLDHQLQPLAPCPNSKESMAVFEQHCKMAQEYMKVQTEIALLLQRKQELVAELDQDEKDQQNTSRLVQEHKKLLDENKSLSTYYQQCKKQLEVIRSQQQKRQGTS
As to the kind of experiment: co-IP; HEK293T cells co-transfected with Flag-USP29 and Myc-TAK1 for 48 h; lysate incubated with Flag or Myc antibody at 4 °C for 4 h, then Protein A/G magnetic beads overnight at 4 °C; Western blot.

Experiment [2] addresses T2, GST-Myc-TAK1 (human) (UniProt O43318).
T2 sequence: T1 sequence
Put plainly: pull-down; GST-tagged protein (GST-Myc-TAK1, GST-Myc-USP29 or GST-Myc) captured from transfected HEK293T lysate on Glutathione MagBeads (2 h, room temperature), then incubated with total protein overnight at 4 °C; Western blot; only the target purified.

Experiment [3] deals with T3, GST-Myc-USP29 (human) (UniProt Q9HBJ7).
T3 sequence: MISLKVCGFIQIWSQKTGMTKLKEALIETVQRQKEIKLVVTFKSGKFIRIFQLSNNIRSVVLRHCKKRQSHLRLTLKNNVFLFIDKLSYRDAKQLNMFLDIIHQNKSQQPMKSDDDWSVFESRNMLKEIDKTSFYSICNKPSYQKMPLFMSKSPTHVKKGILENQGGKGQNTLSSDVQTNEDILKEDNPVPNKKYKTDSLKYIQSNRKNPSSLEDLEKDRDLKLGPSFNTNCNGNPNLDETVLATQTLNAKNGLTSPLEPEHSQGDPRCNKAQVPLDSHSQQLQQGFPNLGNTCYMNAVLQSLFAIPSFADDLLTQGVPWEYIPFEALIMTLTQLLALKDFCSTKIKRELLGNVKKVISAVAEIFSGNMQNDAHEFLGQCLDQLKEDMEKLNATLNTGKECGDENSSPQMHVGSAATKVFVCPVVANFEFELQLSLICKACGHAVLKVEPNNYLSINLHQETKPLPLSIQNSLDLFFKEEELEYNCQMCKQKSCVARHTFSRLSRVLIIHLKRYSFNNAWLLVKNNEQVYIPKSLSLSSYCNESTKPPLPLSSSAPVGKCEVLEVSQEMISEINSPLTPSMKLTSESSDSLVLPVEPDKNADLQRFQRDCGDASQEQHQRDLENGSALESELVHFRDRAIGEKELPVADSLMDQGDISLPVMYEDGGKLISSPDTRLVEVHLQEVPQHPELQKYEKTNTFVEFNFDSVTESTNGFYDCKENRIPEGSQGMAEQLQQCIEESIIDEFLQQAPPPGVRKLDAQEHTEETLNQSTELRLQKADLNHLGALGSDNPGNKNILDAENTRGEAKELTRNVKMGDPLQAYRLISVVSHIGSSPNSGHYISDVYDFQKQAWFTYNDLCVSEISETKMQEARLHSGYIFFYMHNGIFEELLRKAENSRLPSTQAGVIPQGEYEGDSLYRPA
Described as above.

These are yes or no findings as the source states them, for the method shown. In cells and extracts the contact can be indirect. Some entries that bind do so weakly or less than the wild type. Sequences can lack the tags named with a protein.

B1: Flag-USP29 (ubiquitin-specific peptidase 29) (enzyme, UniProt Q9HBJ7 1-922)
chain: T3 sequence
Consider B1, for which the binding entry in experiment [1] and in experiment [2] was “binds” each time.

B2: Flag-TAK1 (enzyme, UniProt O43318 1-606)
chain: T1 sequence
As for B2, the binding result in experiment [3] is recorded as “binds”.
